Results published in PMC4719301.
Where two headings read alike, the source gives them in different places. These are yes or no findings as the source states them, for the method shown. In cells and extracts the contact can be indirect. A yes stands for co-enrichment or nearness to the bait. Other partners may have been found.

By UniProt entry, the sequences of proteins in these tests, tags left out.
UniProt P47941: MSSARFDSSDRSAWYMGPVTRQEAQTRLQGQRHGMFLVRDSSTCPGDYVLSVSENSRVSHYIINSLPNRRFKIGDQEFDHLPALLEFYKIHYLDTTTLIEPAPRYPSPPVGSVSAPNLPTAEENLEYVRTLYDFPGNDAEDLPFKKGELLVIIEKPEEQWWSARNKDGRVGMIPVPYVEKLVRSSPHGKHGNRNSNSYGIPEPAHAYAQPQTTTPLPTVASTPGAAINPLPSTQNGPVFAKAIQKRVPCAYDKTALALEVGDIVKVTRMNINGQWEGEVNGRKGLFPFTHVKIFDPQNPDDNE
UniProt Q4JIM5: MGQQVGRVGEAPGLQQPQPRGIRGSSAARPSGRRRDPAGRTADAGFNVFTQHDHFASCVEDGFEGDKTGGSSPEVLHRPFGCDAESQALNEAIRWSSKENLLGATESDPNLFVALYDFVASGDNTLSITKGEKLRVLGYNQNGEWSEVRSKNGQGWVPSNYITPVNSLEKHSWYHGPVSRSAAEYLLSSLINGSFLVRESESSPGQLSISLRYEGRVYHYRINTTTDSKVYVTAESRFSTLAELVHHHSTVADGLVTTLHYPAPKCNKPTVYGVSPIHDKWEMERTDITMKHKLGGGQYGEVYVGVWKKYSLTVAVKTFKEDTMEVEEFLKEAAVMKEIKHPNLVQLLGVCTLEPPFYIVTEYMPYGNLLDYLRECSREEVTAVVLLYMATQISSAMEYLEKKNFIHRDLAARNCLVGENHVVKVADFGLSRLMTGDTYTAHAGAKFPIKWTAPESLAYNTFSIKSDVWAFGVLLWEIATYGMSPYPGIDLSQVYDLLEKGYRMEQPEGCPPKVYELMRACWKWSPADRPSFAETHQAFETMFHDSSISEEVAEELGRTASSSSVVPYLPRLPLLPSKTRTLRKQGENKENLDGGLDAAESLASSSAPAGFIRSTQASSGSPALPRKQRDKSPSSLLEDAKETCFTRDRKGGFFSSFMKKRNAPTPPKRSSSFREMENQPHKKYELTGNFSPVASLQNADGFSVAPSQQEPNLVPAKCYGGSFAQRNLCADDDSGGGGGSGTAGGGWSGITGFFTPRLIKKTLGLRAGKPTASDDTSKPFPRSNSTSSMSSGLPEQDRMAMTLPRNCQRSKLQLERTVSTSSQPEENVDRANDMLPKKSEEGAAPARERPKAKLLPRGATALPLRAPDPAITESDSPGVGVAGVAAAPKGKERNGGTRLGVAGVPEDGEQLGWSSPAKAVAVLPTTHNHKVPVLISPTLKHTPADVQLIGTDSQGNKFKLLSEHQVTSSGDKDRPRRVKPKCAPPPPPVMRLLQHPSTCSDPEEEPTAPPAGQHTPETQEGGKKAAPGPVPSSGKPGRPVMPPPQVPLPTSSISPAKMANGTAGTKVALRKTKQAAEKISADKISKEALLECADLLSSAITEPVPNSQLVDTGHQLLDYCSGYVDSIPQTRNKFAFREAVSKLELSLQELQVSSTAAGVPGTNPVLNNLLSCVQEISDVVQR
UniProt E9Q7D5: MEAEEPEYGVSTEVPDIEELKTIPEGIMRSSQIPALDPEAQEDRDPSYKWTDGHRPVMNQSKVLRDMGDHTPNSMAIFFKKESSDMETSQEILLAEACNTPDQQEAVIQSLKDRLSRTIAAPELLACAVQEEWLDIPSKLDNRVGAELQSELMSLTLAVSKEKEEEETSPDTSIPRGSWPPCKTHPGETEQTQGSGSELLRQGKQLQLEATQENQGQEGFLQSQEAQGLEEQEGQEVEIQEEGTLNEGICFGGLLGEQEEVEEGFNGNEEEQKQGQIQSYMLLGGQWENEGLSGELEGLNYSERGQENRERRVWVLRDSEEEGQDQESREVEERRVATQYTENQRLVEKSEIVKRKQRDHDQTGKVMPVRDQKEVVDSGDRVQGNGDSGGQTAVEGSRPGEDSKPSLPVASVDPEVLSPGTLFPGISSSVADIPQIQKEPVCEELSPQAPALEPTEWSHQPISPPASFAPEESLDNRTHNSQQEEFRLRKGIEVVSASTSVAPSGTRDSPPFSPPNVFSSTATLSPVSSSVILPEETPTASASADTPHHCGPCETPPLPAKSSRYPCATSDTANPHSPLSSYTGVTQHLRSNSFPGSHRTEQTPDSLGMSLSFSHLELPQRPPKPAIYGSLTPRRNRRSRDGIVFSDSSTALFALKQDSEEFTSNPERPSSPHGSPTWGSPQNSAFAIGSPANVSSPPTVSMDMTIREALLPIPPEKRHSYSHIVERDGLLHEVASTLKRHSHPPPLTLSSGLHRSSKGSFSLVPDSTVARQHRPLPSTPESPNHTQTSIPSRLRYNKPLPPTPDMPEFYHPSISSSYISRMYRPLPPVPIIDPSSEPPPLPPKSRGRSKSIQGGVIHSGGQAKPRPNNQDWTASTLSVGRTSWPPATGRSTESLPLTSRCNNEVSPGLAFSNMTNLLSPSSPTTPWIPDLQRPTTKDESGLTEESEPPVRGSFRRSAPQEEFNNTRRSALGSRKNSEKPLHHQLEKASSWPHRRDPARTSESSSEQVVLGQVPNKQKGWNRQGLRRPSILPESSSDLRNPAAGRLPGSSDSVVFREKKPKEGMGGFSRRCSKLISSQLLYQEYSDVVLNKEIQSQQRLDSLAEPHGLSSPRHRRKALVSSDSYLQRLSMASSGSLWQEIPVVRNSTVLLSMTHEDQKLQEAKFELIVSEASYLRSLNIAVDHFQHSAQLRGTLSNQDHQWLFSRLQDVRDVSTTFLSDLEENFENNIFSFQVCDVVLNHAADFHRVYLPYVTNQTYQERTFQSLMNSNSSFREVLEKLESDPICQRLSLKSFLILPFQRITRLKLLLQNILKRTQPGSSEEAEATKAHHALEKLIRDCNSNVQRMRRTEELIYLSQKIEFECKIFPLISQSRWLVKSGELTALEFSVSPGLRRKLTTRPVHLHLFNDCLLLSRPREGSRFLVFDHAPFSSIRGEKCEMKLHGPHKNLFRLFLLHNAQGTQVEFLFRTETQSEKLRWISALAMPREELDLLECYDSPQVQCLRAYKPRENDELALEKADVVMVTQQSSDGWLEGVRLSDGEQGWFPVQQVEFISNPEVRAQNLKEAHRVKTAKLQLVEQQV

Tests used:
TAP-CrkL (mouse) [1] = target: TAP-CrkL (mouse) (UniProt P47941); assay: affinity purification with mass spectrometry; TAP-CrkL purified from lysates of transfected C2C12 myotubes; SDS-PAGE, silver stain, gel slices digested with trypsin, LC-MS/MS, iBAQ; compared with a sham control
TAP-CrkL (mouse) [2] = target: TAP-CrkL (mouse) (UniProt P47941); assay: as above; remark: listed apart in the source

Molecule | binding (TAP-CrkL (mouse) [1]) | binding (TAP-CrkL (mouse) [2])
Abl2 (from UniProt Q4JIM5 1-1182) | binds | –
Arhgef5 (from UniProt E9Q7D5 1-1581) | binds | –
Dok-7 (protein, UniProt Q18PE0 1-504) MTEAALVEGQVKLRDGKKWKSRWLVLRKPSPVADCLLMLVYKDKCERSKGLRERSSLTLEDICGLEPALPYEGLAHTLAIICLSQAVMLGFDSHEAMCAWDTRIRYALGEVHRFHVTVAPGTKLESGPATLHLCNDILVLARDIPPTVMGQWKLSDLRRYGAVPNGFIFEGGTRCGYWAGVFFLSSAEGEQMSFLFDCIVRGISPTKGPFGLRPVLPDPSSGGPSASEERVAQEALEALQLEKRLSLLSHSGRPGSGGDDRSLSSSSSEASHSDISASSRLTAWPEQSSSSAGTSQEGPGLVAAQGPGEAMLGASRPPLKPLRPRQLQEVGRQSSSDSGIATGSHSSYSGSFSSYAGSNLDVWRAGEEFGSLLSLPPGASAPEPRLCACPPGAAEYQVPTSLRHHYDTPRSLRQAPRDPSPASQGSSDHGSATDLGGQAPTGCPSSWLGARRRGQATEGPGSDAALPSPSPGESWEAGSPHAGPPPAFFLSCSICGGLKVKPPP | – | binds
Elmo2 (protein, UniProt Q8BHL5 1-732) MPPPSDIVKVAIEWPGANAQLLEIDQKRPLASIIKEVCDGWSLPNPEYYTLRYADGPQLYVTEQTRNDIKNGTILQLAVSPSRAARQLMERTQSSSMETRLDAMKELAKLSADVTFATEFINMDGIIVLTRLVESGTKLLSHYSEMLAFTLTAFLELMDHGIVSWDMVSVTFIKQIAGYVSQPMVDVSILQRSLAILESMVLNSQSLYQKIAEEITVGQLISHLQVSNQEIQTYAIALINALFLKAPEDKRQDKHLNPLDLPVTDMANAFAQKHLRSIILNHVIRGNRPIKTEMAHQLYVLQVLTFNLLEERMMTKMDPNDQAQRDIIFELRRIAFDAESDPSNVPGSGTEKRKAMYTKDYKMLGFTNHINPALDFTQTPPGMLALDNMLYLAKVHQDTYIRIVLENSSREDKHECPFGRSAIELTKMLCEILQVGELPNEGRNDYHPMFFTHDRAFEELFGICIQLLNKTWKEMRATAEDFNKVMQVVREQITRALPSKPNSLDQFKSKLRSLSYSEILRLRQSERMSQDDFQSPPIVELREKIQPEILELIKQQRLNRLCEGSSFRKIGNRRRQERFWHCRLALNHKVLHYGDLDDNPQGEVTFESLQEKIPVADIKAIVTGKDCPHMKEKSALKQNKEVLELAFSILYDPDETLNFIAPNKYEYCIWIDGLSALLGKDMSSELTKSDLDTLLSMEMKLRLLDLENIQIPEAPPPVPKEPSSYDFVYHYG | – | binds
LL5beta (protein, UniProt Q8K1N2 1-1249) MAEDSHMQKQLEFQNGSLEEGFVVRSLENEPQNMMESLSPRKYSSSLKFKANGDYSGSYLTLSQPVSAKRSPSPMGTSVRSSPSLAKIQGSKQFCDGIDKNISMKPPISFLSSAASLGGYPLGKADLDHYTGRDSERSTRLSEKPPYSRYSSRNKSHDSVYFLGGLEGRKTSGSLLTMWNGNSLSCTGSSPISRSGAASMPSSPKQVRKMNLQDHSTLQPRLSRHKEPASENVSVRTRKYSGSSLSNMGAYSRSLPRLYKATDNQMSPLSLPPRSSLGNSRRGQLGEKDLPHSLVDSDNYLNFSSLSSGASPYKTCLSEGNPYVSSALSVPASPRVARKMLLASTSSDDFDRASYSGTSPSHSFISGEPDRVLVARRNFSCGSMELDDSDLESLRQSSETPQPVLRERKSSISSISGRDDLMDYHRRQREERLREQEMERLERQRLETILSLCAEYTKPEGRRLSAGTTVADVQKINKELEKLQLSDEESVFEDALVCPDARYRCHRKGSLQDVDVAGFGNLGHSASFLAPRGSRSDELLGDLTRTPPSSSAAFLKATNESSYLSILPKTPEDIGEEQRTQELAAMEDARMVILNNLEELEQKIKDINDQMDESSRELDMECALLDGEQKSETAELMKEKEILDHLNRKITELEKNIVGEKTKEKVKLDAEREKLERLQELYSEQKTQLDNCPESMREQLQQQLKRDADLLDVESKHFEDLEFQQLEHESRLDEEKENLTQQLLREVAEYQRNIVARKEKISALKKQASHIVQQAQREQDHFVKEKNNLIMMLQREKENLCNLEKKYSSLTGGKGFPINPNTLKEGYISVNEINESCGNSTNLSPSTQFPADADAAVTEPALAVPVSQPQSSEHFRSLEERKKQHKEGLYLSDTLPRKKTTPSLSPHFSSATMGRSTTPKAHLPLGQSNSCGSVLPHSLATMTKDSESRRMLRGYNHQQMSEGQRQKPEFYSRTASESNVYLNSFHYPDRSYKDQAYDTLSLDSSDSMETSISACSPDNISSASTSNIARIEEMERLLKQAHAEKTRLLESREREMEAKKRALEEEKRRREILEKRLQEETSQRQKLIEKEVKIREKQRAQARPLTRYLPVRKEDFDLRSHVETAGHNIDTCFHVSITEKTCRGYLIKMGGKIKTWKKRWFVFDRNKRTFSYYADKHEAKLKGVIYFQAIEEVYYDHLKNANKSPNPLLTFSVKTHDRIYYMVAPSPEAMRIWMDVIVTGAEGYTHFLL | – | binds
Sorbs1 (protein, UniProt Q62417 1-1290) MSSECDVGSSKAVVNGLASGNHGPDKDMDPTKICTGKGTVTLRASSSYRGTPSSSPVSPQESPKHESKSGLEPEDPSADEWKLSSSADTNGNAQPSPLAAKGYRSVHPSLSADKPQGSPLLNEVSSSHIETDSQDFPPTSRPSSAYPSTTIVNPTIVLLQHNRDPASERRAGEQDPVPTPAELTSPGRASERRAKDASRRVVRSAQDLSDVSTDEVGIPLRNTERSKDWYKTMFKQIHKLNRDDDSDVHSPRYSFSDDTKSPLSVPRSKSEMNYIEGEKVVKRSATLPLPARSSSLKSSPERNDWEPLDKKVDTRKYRAEPKSIYEYQPGKSSVLTNEKMSRDISPEEIDLKNEPWYKFFSELEFGRPTNLEKDLSFCQAELEADLEKVETVNKSPSANSPQSSAVSPTPDITSEPPGYIYSSNFHAVKRESDGTPGGLASLENERQIYKSVLEGGDIPLQGLSGLKRPSSSASTKVDRKGGNAHMISSSSVHSRTFHTSNALGPGCKHKKPLSAAKACISEILPSKFKPRLSAPSALLQEQKSVLLPSEKAQSCENLCVSLNDSKRGLPLRVGGSIENLLMRSRRDYDSKSSSTMSLQEYGTSSRRPCPLSRKAGLHFSMFYRDMHQINRAGLSLGSISSSSVRDLASHFERSSLTLARGELGASQEGSEHIPKHTVSSRITAFEQLIQRSRSMPSLDFSGRLSKSPTPVLSRSGLTSARSAESLLESTKLRPREMDGMDSGGVYASPTCSNMADHALSFRSLVPSEPLSICSDELDHCSNVSNDSREGSGGSVHGDFPKHRLNKCKGTCPASYTRFTTIRKHEQQSSRQSDWRSDSRGDKNSLLRNIHLMSPLPFRLKKPLQQHPRQPPPSDSSESPAGQKADLPCHDPQDQPHSAGKPQVPTRLSSRHTMARLSHNSEPPLDRPAGLEDCTRAINNGNPVPYSDHGLDRNNNPQSELAAAHGDSESPRHFIPADYLESTEEFIRRRHDDKEKLLADQRRLKREQEEADIAARRHTGVIPTHHQFITNERFGDLLNIDDTAKRKSGLEMRPARAKFDFKAQTLKELPLQKGDVVYIYRQIDQNWYEGEHHGRVGIFPRTYIELLPPAEKAQPRKLAPVQVLEYGEAIAKFNFNGDTQVEMSFRKGERITLLRQVDENWYEGRIPGTSRQGIFPITYVDVLKRPLVKTPVDYIDLPYSSSPSRSATVSPQQPQAQQRRVTPDRSQPSLDLCSYQALYSYVPQNDDELELRDGDIVDVMEKCDDGWFVGTSRRTRQFGTFPGNYVKPLYL | – | binds
Sorbs2 (protein, UniProt Q3UTJ2 1-1180) MNTDSGGCARKRAAMSVTLTSVKRVQSSPNLLAAGRESQSPDSAWRSYNDRNPETLNGDATYSSLAAKGFRSVRPNLQDKRSPTQSQITINGNSGGAVSPVSYYQRPFSPSAYSLPASLNSSIIMQHGRSLDSAETYSQHAQSLDGTMGSSIPLYRSSEEEKRVTVIKAPHYPGIGPVDESGIPTAIRTTVDRPKDWYKTMFKQIHMVHKPGLYNSPYSAQSHPAAKTQTYRPLSKSHSDNGTDAFKEVPSPVPPPHVPPRPRDQSSTLKHDWDPPDRKVDTRKFRSEPRSIFEYEPGKSSILQHERPVSIYQSSIDRSLERPSSSASMAGDFRKRRKSEPAVGPLRGLGDQSSSRTSPGRADLPGSSSTFTKSFISSSPSSPSRAQGGDDSKMCPPLCSYSGLNGTPSGELECCNAYRQHLDVPGDSQRAITFKNGWQMARQNAEIWSSTEETVSPKIKSRSCDDLLNDDCDSFPDPKTKSESMGSLLCEEDSKESCPMTWASPYIQEVCGNSRSRLKHRSAHNAPGFLKMYKKMHRINRKDLMNSEVICSVKSRILQYEKEQQHRGLLHGWSQSSTEEVPRDVVPTRISEFEKLIQKSKSMPNLGDEMLSPITLEPPQNGLCPKRRFSIESLLEEETQVRHPSQGQRSCKSNTLVPIHIEVTSDEQPRTHMEFSDSDQDGVVSDHSDYVHVEGSSFCSESDFDHFSFTSSESFYGSSHHHHHHHHHHRHLISSCKGRCPASYTRFTTMLKHERAKHENMDRPRRQEMDPGLSKLAFLVSPVPFRRKKILTPQKQTEKAKCKASVVEALDSALKDICDQIKAEKRRGSLPDNSILHRLISELLPQIPERNSSLHALKRSPMHQPFHPLPPDGASHCPLYQNDCGRMPHSASFPDVDTTSNYHAQDYGSALSLQDHESPRSYSSTLTDLGRSASRERRGTPEKEKLPAKAVYDFKAQTSKELSFKKGDTVYILRKIDQNWYEGEHHGRVGIFPISYVEKLTPPEKAQPARPPPPVQPGEIGEAIAKYNFNADTNVELSLRKGDRIILLKRVDQNWYEGKIPGTNRQGIFPVSYVEVVKRNAKGAEDYPDPPLPHSYSSDRIYTLSSNKPQRPGFSHENIQGGGEPFQALYNYTPRNEDELELRESDVVDVMEKCDDGWFVGTSRRTKFFGTFPGNYVKRL | – | binds
Tks5 (protein, UniProt O89032 1-1124) MLAYCVQDATVVDVEKRRSPSKHYVYIINVTWSDSTSQTIYRRYSKFFDLQMQLLDKFPIEGGQKDPKQRIIPFLPGKILFRRSHIRDVAVKRLKPIDEYCRALVRLPPHISQCDEVFRFFEARPEDVNPPKEDYGSSKRKSVWLSSWAESPKKDVTGADTNAEPMILEQYVVVSNYKKQENSELSLQAGEVVDVIEKNESGWWFVSTSEEQGWVPATYLEAQNGTRDDSDINTSKTGEVSKRRKAHLRRLDRRWTLGGMVNRQHSREEKYVTVQPYTSQSKDEIGFEKGVTVEVIRKNLEGWWYIRYLGKEGWAPASYLKKAKDDLPTRKKNLAGPVEIIGNIMEISNLLNKKASGDKEAPAEGEGSEAPITKKEISLPILCNASNGSALAIPERTTSKLAQGSPAVARIAPQRAQISSPNLRTRPPPRRESSLGFQLPKPPEPPSVEVEYYTIAEFQSCISDGISFRGGQKAEVIDKNSGGWWYVQIGEKEGWAPASYIDKRKKPNLSRRTSTLTRPKVPPPAPPSKPKEAEENPVGACESQGSPLKVKYEEPEYDVPAFGFDSEPEMNEEPSGDRGSGDKHPAQPRRISPASSLQRAHFKVGESSEDVALEEETIYENEGFRPYTEDTLSARGSSGDSDSPGSSSLSLAVKNSPKSDSPKSSSLLKLKAEKNAQAELGKNQSNISFSSSVTISTTCSSSSSSSSLSKNNGDLKPRSASDAGIRDTPKVGTKKDPDVKAGLASCARAKPSVRPKPVLNRAESQSQEKMDISSLRRQLRPTGQLRGGLKGSRSEDSELPPQMASEGSRRGSADIIPLTATTPPCVPKKEWEGQGATYVTCSAYQKVQDSEISFPEGAEVHVLEKAESGWWYVRFGELEGWAPSHYLVAEENQQPDTASKEGDTGKSSQNEGKSDSLEKIEKRVQALNTVNQSKRATPPIPSKPPGGFGKTSGTVAVKMRNGVRQVAVRPQSVFVSPPPKDNNLSCALRRNESLTATDSLRGVRRNSSFSTARSAAAEAKGRLAERAASQGSESPLLPTQRKGIPVSPVRPKPIEKSQFIHNNLKDVYISIADYEGDEETAGFQEGVSMEVLEKNPNGWWYCQILDEVKPFKGWVPSNYLEKKN | – | binds
